Primary screen of a compound library

Sequences of proteins named here, by UniProt entry; tags and fusion partners are left off. Residues count along the entry.
UniProt P9WNZ1, whole entry: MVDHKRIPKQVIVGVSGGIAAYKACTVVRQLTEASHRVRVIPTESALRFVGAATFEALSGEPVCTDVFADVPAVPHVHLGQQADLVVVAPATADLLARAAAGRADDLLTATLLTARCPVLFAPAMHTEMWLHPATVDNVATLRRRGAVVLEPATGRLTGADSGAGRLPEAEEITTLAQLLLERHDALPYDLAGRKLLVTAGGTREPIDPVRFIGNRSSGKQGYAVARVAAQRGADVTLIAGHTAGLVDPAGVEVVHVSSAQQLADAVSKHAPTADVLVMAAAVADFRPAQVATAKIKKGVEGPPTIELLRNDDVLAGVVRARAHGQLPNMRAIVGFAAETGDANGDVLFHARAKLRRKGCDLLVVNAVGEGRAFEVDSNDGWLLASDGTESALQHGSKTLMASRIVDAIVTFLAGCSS
UniProt Q4DA54, 1-478: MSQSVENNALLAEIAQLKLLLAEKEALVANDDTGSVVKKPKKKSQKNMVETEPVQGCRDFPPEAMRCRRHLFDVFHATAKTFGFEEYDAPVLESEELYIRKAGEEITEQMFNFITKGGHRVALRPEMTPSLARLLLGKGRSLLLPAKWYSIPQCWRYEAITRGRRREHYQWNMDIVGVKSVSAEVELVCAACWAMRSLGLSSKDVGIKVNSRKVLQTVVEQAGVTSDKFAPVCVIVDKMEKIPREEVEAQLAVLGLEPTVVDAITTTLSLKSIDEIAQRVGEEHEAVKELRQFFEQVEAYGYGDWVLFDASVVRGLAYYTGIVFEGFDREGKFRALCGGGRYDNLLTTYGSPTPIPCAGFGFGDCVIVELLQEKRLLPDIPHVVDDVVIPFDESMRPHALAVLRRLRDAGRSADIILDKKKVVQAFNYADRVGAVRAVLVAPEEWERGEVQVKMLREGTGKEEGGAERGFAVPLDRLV

The filed quantity is “Percent Effect” (%).
How 0% and 100% were set is not recorded. Most values in the screen are low, and negative values occur.
Compounds were drawn at random from those tested, without regard to their results.

CoaBC: 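Enzyme assay of CoaBC with a phosphate dye (Biomol Green) read at 650 nm. Target: Coenzyme A biosynthesis protein CoaBC, Mycobacterium tuberculosis (UniProt P9WNZ1). Concentration: 30 µM. Direction is inferred from only a few compounds that gave an IC50; most scored high, so higher reads as stronger inhibition. Most strong results did not repeat in a second test. Size under these conditions: about 67,000 compounds, about 40 of them at 50% or above in at least one test.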
TcHisRS: 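Histidine-tRNA ligase, Trypanosoma cruzi CL Brener (UniProt Q4DA54). Enzyme assay of histidyl-tRNA synthetase; the read-out is not stated. Tested at 30 µM. The record gives no direction; compounds that gave an IC50 in retests scored well above the rest, so higher reads as stronger inhibition. About 69,000 compounds were tested under these conditions; 0.045% (about 31) showed 50% or more at least once.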

N#CC1(NC(=O)COC(=O)Cc2cc(Cl)c3c(c2)OCCO3)CCCC1 read CoaBC: 3.306%; TcHisRS: -1.667%.
Cc1nccn1C1CCCN(C(=O)Cc2cn3ccccc3n2)C1 (configuration not stated) read CoaBC: -10.72%; TcHisRS: 5.413%.
CCn1ncc(C(=O)NCCc2nc(-c3cccnc3)n[nH]2)c1C read CoaBC: -2.577%; TcHisRS: 2.326%.
c1nc(NCC2(N3CCOCC3)CCSC2)c2sccc2n1 (configuration not stated) read CoaBC: 5.696%; TcHisRS: 6.404%.
O=C(NCc1ccccc1F)Nc1ccn(CCN2CCOCC2)n1 read CoaBC: -0.4878%; TcHisRS: -9.804%.
C[C@@H](NCc1cccc(Cl)c1)c1onc(-c2ccc(F)cc2)c1C(=O)O read CoaBC: 12.77%; TcHisRS: 1.493%.
Cc1cccc(N2CC[C@H]3[C@H](CO[C@@H]3CN(C)Cc3ccco3)C2)n1 read CoaBC: 3.273%; TcHisRS: 9.497%.
NC(=O)N1CCC(NCc2cc(Br)ccc2Cl)CC1 read CoaBC: 4.854%; TcHisRS: 8.287%.
O=C(CSc1ccc2c(c1)OCCO2)NS(=O)(=O)c1cccnc1 read CoaBC: -6.114%; TcHisRS: -2.116%.
CC(C)Cc1nc(CN(C)c2cc(C(C)C)nc3ccnn23)no1 read CoaBC: 6.71%; TcHisRS: 4%.
Cc1cnn(CC2CCCN2CC(=O)N(C)Cc2ccc(C)o2)c1 (configuration not stated) read CoaBC: 8.316%; TcHisRS: 9.167%.
CC(C)(C)C(=O)N1CCCC1c1ccc(C(=O)N2CCOCC2)s1 (configuration not stated) read CoaBC: 9.346%; TcHisRS: -2.174%.
Cc1ccsc1C(=O)N1CCc2ncnc(NC(C)C)c2CC1 read CoaBC: 7.505%; TcHisRS: 10.92%.
CCN(Cc1ccc(S(C)(=O)=O)cc1)Cc1nc(COC)no1 read CoaBC: 2.915%; TcHisRS: 2.155%.
Cc1c(COC(C)C)cccc1NC(=O)N1CCCC(CO)C1 (configuration not stated) read CoaBC: -7.393%; TcHisRS: 15%.
Cc1ccccc1CNC(=O)CN1CCCC(Cc2nccn2C)C1 (configuration not stated) read CoaBC: 5.044%; TcHisRS: 5.814%.
Cc1ccc(-c2ncc(C(=O)NS(C)(=O)=O)s2)c(C)c1 read CoaBC: 1.513%; TcHisRS: -0.2907%.
CC(C(=O)NCc1ccnc(N2CCOCC2)c1)n1cccn1 (configuration not stated) read CoaBC: 3.169%; TcHisRS: 5.917%.
COCCO[C@H]1CCN(c2cc(OC)ncn2)[C@H]1Cc1cccnc1 read CoaBC: -5.011%; TcHisRS: 3.279%.
COc1ccccc1C(O)CNC(=O)Nc1ccccn1 (configuration not stated) read CoaBC: 4.987%; TcHisRS: 5.143%.
CCc1nnc(CN2CCCCC2Cn2cncn2)o1 (configuration not stated) read CoaBC: 1.195%; TcHisRS: 4.571%.
CCn1cnnc1CCNc1nc(C)cc(C)c1C#N read CoaBC: 8.738%; TcHisRS: 7.035%.
CC(=O)N1CCN(c2cc(C3CCNCC3)ccn2)CC1 read CoaBC: 0.6135%; TcHisRS: 6.977%.
CC(C)CCCC1CN(C(=O)c2cnc[nH]2)CCO1 (configuration not stated) read CoaBC: -1.01%; TcHisRS: 0.5181%.
CC(C)c1cc(COCCC(=O)O)no1 read CoaBC: 2.577%; TcHisRS: 3.468%.
CCOc1cccc(CCNC(=O)Cc2ccccc2O)n1 read CoaBC: 0.7317%; TcHisRS: 0.9804%.
COc1c(C)cnc(CNC(=O)CCOCc2ccccc2)c1C read CoaBC: -2.206%; TcHisRS: 5.952%.
Cc1noc(C2(C)CCCN(C(=O)c3cnn(C)c3)C2)n1 (configuration not stated) read CoaBC: 1.46%; TcHisRS: 5.224%.
CSCc1nc(CCNC(=O)c2cnn(C(C)C)c2)cs1 read CoaBC: -4.106%; TcHisRS: 4.516%.
Cc1c(C(=O)N2CCN(C)CC2)n(C)c2ccc(Cl)cc12 read CoaBC: -7.783%; TcHisRS: 7.216%.
COCCN(C)C[C@@H]1CN(C(=O)c2ccc(OC)c(F)c2)C[C@@H]1CO read CoaBC: 2.286%; TcHisRS: 4.523%.
COc1cccc(CNC(=O)Cn2ccc3c(C)nn(C)c3c2=O)c1 read CoaBC: 2.058%; TcHisRS: 4.95%.
CCN(CC)S(=O)(=O)N(Cc1ccccn1)Cc1ccccc1C read CoaBC: 2.296%; TcHisRS: 6.154%.
OCc1csc(N2CCCC(CO)(Cc3cccc(Cl)c3)C2)n1 (configuration not stated) read CoaBC: 3.046%; TcHisRS: 13.9%.

Some entries from above, unchanged:

* COc1cccc(CNC(=O)Cn2ccc3c(C)nn(C)c3c2=O)c1 : CoaBC: 2.058%; TcHisRS: 4.95%
* CCOc1cccc(CCNC(=O)Cc2ccccc2O)n1 : CoaBC: 0.7317%; TcHisRS: 0.9804%
* C[C@@H](NCc1cccc(Cl)c1)c1onc(-c2ccc(F)cc2)c1C(=O)O : CoaBC: 12.77%; TcHisRS: 1.493%

Source: ChEMBL document CHEMBL3988442, “University of Dundee, Small-Polar-MMV Screening Library” (2021).